According to patent US6762284:
No constants are given. Whether binding was seen depends on the method and setting. Some binding calls cover weakened binding; strength is not graded here.

Sequences of proteins named here, by UniProt entry; tags and fusion partners are left off. A change or cut given only in a name is not applied to a line headed by its entry.
UniProt P04386: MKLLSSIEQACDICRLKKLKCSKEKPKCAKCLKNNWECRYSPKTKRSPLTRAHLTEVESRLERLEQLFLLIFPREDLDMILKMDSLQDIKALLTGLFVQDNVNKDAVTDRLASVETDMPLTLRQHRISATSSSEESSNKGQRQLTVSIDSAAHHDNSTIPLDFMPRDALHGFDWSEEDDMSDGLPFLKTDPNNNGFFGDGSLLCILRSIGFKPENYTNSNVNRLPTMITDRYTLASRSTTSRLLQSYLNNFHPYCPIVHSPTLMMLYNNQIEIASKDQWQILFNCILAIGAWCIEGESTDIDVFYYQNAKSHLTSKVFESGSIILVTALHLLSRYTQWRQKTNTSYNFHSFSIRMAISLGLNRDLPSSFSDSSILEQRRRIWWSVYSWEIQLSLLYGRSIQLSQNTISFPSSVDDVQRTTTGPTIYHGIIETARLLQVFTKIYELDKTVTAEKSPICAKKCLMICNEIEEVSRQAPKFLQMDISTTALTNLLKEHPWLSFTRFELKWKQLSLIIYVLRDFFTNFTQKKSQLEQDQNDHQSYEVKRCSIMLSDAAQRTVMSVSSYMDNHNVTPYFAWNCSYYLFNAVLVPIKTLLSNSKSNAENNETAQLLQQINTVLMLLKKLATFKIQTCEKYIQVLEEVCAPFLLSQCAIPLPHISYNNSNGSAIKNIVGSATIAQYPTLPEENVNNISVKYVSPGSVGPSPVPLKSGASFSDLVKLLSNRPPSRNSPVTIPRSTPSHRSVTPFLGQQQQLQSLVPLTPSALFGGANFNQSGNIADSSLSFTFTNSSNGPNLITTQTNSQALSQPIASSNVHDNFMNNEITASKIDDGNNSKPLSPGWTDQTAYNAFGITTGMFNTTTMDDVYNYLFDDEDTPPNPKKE
UniProt P27986: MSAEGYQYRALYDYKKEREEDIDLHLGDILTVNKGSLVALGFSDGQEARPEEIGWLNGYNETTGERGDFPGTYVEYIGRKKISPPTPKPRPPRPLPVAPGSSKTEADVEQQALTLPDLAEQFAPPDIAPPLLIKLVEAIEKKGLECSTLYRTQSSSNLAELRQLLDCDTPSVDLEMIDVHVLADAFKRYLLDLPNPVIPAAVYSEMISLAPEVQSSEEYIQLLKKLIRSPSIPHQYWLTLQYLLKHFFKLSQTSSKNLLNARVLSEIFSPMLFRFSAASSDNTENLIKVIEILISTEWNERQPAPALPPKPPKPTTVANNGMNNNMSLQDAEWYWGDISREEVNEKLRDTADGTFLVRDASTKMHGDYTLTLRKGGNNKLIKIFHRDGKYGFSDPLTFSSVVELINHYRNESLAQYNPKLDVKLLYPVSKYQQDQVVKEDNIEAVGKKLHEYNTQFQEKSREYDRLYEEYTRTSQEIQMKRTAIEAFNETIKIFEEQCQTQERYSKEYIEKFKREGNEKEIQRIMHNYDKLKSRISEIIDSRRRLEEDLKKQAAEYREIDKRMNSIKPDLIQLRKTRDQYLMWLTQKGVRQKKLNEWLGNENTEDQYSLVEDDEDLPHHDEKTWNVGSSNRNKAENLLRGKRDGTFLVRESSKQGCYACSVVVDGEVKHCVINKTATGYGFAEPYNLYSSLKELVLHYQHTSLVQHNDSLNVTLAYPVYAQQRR

What was measured:
Assay in all cases: yeast two-hybrid
[1] = molecular target: p85 N-terminal SH2 and inter SH2 domain (AA 263-620) (human) (UniProt P04386+P27986)
[2] = molecular target: p85 SH2 domains and inter SH2 domain (AA 263-727) (human) (UniProt P04386+P27986)
[3] = molecular target: p85 full length (AA 6-727) (human) (UniProt P04386+P27986)

Measured: binding

B1: PIKAP AA 277-589 (protein, not shown: large carriers)
chain: EDSGDAEAHAFKSPSKENKKKDKDMLEDKFKSNNLEREQEQLDRIVKESGGKLTRRLVNSQCEFERRKPDGTTTLGLLHPVDPIVGEPGYCLVRLGMTTGRLQSGVNTLQGFKEDKRNKVTPVLYLNYGPYSSYAPHYDSTFANISKDDSDLIYSTYGEDSDLPSDFSIHEFLATCQDYPYVMADSLLDVLTKGGHSRTLQEMEMSLPEDEGHTRTLDTGKEMEQITEVEPPGRLDSSTQDRLIALKAVTNFGVPVEVFDSEEAEIFQKKLDETTRLLRELQEAQNERLSTRPPGNMICLLGPSSEKCILLNK
binds: [1] | [2] | [3]
